In patent US11567075B2, “Immunochromatographic device, immunochromatographic kit and immunochromatographic detection method” (TANAKA KIKINZOKU KOGYO K.K., priority 2018, dated 2023):

Test system: inactivated Group A β-hemolytic streptococcus
Assay: Immunochromatographic detection, visual evaluation of red line on detection part
Design: key: “+” (positive) when the red line on the detection part (4) could be visually observed; “++” (strong positive) when the red line could be visually observed clearly; “±” (weak positive) when a light red line could be visually observed; “−” (negative) when the red line could not be visually observed
Details: for Result of Visual Evaluation (After Storage at 50° C. for 24 Hours): device stored at 50° C. for 24 hours, then positive analyte sample 5×10^5 org/mL, after 5 minutes; for Result of Visual Evaluation (After 5 Minutes): positive analyte sample 5×10^5 org/mL, 150 μL

Structure (SMILES)	Result of Visual Evaluation (After Storage at 50° C. for 24 Hours)	Result of Visual Evaluation (After 5 Minutes)
N[C@@H](CCC(=O)O)C(=O)O [compound 7, glutamic acid]	−	−
CCCCCCCC/C=C\CCCCCCCC(=O)O [compound 6, oleic acid]	−	−
O=C(O)CC(O)C(=O)O (centres unmarked) [compound 3, malic acid]	−	−
O=C1CC(c2ccccc2)C(=O)O1 (centres unmarked) [compound 8, phenylsussinic acid anhydride]	−	+
C=C(CC(=O)O)C(=O)O [compound 4, itaconic acid]	−	−
O=c1oc(=O)c2cc3c(=O)oc(=O)c3cc12 [Example 2, pyromellitic anhydride]	++	++
O=C1CCC(=O)O1 [compound 2, succinic anhydride]	−	++
